# Measurements from US20240294670A1.
# By UniProt entry, the sequences of proteins in these tests, tags left out. Where a name states a change or a piece, a line headed by the entry shows the natural chain unless it says otherwise. Residues count along the entry.
# UniProt P16070, residues 21-220: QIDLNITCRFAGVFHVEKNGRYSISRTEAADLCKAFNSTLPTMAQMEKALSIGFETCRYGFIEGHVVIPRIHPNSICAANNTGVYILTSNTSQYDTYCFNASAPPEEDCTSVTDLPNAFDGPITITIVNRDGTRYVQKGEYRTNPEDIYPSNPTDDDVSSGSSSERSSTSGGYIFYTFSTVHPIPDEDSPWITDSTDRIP
# UniProt A0A0A0MQF6: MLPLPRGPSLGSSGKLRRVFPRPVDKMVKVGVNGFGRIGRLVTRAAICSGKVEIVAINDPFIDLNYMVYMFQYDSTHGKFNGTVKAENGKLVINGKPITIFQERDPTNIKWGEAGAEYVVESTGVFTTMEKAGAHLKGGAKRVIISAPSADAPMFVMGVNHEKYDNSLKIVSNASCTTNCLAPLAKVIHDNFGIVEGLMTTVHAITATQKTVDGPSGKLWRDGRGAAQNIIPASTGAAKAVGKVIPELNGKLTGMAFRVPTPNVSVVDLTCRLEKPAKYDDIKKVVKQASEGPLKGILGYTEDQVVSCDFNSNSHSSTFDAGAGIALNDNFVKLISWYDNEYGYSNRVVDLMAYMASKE
# UniProt P36222, residues 22-383: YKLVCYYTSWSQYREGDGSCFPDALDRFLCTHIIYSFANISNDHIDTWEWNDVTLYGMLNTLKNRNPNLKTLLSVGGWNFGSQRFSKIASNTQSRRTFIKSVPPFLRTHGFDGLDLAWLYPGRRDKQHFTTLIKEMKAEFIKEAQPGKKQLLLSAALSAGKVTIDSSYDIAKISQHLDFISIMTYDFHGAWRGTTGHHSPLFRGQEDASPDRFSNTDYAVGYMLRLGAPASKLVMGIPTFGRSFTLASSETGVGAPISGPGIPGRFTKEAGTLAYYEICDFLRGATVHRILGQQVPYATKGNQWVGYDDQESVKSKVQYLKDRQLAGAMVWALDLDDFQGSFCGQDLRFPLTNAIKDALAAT
# UniProt Q61362, residues 30-389: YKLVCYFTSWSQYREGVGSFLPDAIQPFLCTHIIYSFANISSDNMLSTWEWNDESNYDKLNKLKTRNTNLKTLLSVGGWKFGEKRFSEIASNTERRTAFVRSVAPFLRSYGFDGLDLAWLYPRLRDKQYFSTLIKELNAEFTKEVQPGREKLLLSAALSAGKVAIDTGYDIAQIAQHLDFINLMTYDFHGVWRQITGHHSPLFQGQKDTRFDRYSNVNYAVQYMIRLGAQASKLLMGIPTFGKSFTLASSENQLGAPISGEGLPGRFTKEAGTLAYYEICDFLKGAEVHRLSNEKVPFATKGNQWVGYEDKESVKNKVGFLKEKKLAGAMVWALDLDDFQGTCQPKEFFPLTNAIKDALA
# Results are given in words; binding and its absence hold for the method and conditions named. For part of these data: Binding seen in cells or lysates may run through a third protein. Some binding calls cover weakened binding; strength is not graded here.
# Assays:
# [1] = target: human CD44-Fc (human) (UniProt P16070); test: in vitro co-immunoprecipitation of rhCHI3L1 and human CD44, western blot
# [2] = target: T1, UniProt Q3TQD9_MOUSE (mouse); test: anti-His co-IP of rCHI3L1 from Kupffer cell lysate, MS; listed under 'proteins bound to CHI3L1'
# T1 sequence: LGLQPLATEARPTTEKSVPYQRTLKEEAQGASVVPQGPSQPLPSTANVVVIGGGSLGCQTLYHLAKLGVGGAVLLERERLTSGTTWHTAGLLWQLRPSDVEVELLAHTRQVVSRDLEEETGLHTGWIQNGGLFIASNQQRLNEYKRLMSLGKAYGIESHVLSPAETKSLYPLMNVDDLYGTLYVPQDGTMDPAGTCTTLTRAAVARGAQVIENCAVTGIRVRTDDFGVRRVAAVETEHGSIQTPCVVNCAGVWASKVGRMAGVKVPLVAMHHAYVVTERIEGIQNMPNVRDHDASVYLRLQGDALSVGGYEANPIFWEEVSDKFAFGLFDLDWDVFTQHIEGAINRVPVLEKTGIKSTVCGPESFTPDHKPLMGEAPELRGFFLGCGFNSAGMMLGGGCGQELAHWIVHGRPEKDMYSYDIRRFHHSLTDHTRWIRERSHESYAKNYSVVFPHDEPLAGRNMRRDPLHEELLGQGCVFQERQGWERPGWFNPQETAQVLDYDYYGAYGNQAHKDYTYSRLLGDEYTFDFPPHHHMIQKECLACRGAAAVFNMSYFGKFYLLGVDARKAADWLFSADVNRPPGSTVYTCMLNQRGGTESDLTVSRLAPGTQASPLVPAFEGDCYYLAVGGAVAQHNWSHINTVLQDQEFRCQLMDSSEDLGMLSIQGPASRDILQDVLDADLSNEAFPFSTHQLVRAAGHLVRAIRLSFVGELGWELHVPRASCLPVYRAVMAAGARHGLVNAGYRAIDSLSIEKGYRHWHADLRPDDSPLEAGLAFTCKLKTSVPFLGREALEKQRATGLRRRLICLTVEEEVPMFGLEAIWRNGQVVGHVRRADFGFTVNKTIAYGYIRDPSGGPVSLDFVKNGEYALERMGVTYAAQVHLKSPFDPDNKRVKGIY
# [3] = target: UniProt A0A0A0MQF6_MOUSE (mouse); test: as above
# [4] = target: T2, mouse CD44 (mouse) (UniProt P15379); test: as above
# T2 sequence (looked up): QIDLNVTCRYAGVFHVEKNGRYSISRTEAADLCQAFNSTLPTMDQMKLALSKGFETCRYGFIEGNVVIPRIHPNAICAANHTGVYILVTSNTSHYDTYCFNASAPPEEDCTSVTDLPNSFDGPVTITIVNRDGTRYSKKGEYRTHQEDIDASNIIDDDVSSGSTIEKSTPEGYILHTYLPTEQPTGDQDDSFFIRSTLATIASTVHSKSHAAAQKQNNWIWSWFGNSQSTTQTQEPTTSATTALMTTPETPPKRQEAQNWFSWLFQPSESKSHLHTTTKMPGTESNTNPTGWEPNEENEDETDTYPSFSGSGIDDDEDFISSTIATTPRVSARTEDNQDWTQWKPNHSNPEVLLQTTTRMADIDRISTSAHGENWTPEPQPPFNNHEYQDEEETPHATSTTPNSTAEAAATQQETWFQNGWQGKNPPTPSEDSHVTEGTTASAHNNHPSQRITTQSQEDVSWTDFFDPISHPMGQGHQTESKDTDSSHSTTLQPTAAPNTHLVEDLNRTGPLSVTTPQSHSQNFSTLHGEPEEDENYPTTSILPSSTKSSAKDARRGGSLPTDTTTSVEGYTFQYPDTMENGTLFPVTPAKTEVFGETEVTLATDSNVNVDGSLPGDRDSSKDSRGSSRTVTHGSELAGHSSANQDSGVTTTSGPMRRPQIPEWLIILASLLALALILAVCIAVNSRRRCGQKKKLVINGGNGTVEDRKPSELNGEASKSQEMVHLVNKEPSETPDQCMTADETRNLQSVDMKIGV
# [5] = target: T2, mouse CD44 (mouse); test: mouse liver non-parenchymal cells incubated with His-tagged rCHI3L1, binding to cells (FIG. 3D); bound only to Kupffer cells, which carry CD44
# [6] = target: T2, mouse CD44 (mouse); test: co-immunoprecipitation with anti-CD44 antibody from mouse liver homogenates incubated with rCHI3L1, western blot
binding [1],binding [2],binding [3],binding [4],binding [5],binding [6],Substance
binds,–,–,–,–,–,recombinant human CHI3L1 (from UniProt P36222 22-383) (ligand)
–,binds,binds,binds,binds,binds,recombinant mouse CHI3L1 (from UniProt Q61362 30-389) (ligand)
